# Experimental data reported in article doi:10.1101/2021.05.30.446361.
# Sequences of proteins named here, by UniProt entry; tags and fusion partners are left off. A change or cut given only in a name is not applied to a line headed by its entry.
# UniProt Q6ZTU2: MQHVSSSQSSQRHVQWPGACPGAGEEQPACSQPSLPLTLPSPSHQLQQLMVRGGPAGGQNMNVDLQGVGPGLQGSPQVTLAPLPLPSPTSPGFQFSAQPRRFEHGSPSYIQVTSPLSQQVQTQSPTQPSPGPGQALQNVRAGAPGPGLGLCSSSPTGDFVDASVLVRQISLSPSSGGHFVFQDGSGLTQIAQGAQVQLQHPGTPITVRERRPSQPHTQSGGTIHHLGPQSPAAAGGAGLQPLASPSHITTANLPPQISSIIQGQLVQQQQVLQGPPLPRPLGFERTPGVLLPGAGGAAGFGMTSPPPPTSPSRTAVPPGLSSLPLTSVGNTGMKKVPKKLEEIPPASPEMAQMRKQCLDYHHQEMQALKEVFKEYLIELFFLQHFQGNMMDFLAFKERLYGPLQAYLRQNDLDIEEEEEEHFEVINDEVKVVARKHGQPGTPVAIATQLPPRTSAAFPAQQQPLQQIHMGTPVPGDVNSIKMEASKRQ
# UniProt P51532: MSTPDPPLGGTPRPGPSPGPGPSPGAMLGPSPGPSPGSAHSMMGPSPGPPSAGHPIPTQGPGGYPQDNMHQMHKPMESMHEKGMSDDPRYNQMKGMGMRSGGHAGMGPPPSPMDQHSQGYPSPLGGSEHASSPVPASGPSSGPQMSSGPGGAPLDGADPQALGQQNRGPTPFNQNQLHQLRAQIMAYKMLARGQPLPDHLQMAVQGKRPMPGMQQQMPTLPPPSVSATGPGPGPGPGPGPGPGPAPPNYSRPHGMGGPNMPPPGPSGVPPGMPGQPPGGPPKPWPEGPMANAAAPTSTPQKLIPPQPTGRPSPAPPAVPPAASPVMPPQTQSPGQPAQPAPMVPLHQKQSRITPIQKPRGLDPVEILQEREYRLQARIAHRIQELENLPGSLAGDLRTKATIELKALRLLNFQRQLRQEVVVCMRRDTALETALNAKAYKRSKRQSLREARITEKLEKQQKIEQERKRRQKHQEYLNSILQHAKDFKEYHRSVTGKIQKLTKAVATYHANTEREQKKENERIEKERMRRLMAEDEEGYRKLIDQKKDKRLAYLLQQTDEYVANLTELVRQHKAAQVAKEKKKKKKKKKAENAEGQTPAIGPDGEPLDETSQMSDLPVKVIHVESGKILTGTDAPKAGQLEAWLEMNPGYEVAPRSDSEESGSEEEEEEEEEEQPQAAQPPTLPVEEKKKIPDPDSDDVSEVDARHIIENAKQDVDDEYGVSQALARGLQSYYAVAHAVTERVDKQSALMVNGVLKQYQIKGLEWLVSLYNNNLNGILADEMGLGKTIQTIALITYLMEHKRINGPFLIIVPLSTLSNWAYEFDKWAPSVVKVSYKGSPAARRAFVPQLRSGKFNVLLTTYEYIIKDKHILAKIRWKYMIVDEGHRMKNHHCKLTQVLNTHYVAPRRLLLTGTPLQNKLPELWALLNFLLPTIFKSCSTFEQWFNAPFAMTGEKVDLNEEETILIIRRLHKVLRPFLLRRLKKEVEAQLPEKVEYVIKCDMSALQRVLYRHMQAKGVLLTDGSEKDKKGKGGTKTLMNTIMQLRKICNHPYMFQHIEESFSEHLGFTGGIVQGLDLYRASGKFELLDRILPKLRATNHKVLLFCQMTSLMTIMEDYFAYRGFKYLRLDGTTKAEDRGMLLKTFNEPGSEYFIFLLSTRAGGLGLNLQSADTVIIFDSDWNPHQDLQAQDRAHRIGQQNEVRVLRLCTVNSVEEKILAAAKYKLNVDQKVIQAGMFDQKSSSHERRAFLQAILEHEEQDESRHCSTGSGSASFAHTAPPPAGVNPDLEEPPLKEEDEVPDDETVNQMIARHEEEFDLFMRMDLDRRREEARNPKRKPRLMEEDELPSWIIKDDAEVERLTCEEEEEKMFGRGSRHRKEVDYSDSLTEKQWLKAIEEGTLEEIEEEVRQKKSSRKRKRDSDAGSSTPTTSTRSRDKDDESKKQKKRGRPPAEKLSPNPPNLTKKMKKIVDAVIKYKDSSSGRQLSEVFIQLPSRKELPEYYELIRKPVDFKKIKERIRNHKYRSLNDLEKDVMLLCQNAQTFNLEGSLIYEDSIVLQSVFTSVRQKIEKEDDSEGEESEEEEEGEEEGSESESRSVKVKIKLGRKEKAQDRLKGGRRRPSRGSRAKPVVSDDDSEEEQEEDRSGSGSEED
# UniProt O95619: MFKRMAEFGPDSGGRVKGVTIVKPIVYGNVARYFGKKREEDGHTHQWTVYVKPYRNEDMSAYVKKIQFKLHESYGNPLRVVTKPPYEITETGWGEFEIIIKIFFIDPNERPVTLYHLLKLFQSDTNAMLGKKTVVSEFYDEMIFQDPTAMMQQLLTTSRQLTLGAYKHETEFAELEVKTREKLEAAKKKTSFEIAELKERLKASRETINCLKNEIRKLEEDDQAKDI
# UniProt Q9Y4A5: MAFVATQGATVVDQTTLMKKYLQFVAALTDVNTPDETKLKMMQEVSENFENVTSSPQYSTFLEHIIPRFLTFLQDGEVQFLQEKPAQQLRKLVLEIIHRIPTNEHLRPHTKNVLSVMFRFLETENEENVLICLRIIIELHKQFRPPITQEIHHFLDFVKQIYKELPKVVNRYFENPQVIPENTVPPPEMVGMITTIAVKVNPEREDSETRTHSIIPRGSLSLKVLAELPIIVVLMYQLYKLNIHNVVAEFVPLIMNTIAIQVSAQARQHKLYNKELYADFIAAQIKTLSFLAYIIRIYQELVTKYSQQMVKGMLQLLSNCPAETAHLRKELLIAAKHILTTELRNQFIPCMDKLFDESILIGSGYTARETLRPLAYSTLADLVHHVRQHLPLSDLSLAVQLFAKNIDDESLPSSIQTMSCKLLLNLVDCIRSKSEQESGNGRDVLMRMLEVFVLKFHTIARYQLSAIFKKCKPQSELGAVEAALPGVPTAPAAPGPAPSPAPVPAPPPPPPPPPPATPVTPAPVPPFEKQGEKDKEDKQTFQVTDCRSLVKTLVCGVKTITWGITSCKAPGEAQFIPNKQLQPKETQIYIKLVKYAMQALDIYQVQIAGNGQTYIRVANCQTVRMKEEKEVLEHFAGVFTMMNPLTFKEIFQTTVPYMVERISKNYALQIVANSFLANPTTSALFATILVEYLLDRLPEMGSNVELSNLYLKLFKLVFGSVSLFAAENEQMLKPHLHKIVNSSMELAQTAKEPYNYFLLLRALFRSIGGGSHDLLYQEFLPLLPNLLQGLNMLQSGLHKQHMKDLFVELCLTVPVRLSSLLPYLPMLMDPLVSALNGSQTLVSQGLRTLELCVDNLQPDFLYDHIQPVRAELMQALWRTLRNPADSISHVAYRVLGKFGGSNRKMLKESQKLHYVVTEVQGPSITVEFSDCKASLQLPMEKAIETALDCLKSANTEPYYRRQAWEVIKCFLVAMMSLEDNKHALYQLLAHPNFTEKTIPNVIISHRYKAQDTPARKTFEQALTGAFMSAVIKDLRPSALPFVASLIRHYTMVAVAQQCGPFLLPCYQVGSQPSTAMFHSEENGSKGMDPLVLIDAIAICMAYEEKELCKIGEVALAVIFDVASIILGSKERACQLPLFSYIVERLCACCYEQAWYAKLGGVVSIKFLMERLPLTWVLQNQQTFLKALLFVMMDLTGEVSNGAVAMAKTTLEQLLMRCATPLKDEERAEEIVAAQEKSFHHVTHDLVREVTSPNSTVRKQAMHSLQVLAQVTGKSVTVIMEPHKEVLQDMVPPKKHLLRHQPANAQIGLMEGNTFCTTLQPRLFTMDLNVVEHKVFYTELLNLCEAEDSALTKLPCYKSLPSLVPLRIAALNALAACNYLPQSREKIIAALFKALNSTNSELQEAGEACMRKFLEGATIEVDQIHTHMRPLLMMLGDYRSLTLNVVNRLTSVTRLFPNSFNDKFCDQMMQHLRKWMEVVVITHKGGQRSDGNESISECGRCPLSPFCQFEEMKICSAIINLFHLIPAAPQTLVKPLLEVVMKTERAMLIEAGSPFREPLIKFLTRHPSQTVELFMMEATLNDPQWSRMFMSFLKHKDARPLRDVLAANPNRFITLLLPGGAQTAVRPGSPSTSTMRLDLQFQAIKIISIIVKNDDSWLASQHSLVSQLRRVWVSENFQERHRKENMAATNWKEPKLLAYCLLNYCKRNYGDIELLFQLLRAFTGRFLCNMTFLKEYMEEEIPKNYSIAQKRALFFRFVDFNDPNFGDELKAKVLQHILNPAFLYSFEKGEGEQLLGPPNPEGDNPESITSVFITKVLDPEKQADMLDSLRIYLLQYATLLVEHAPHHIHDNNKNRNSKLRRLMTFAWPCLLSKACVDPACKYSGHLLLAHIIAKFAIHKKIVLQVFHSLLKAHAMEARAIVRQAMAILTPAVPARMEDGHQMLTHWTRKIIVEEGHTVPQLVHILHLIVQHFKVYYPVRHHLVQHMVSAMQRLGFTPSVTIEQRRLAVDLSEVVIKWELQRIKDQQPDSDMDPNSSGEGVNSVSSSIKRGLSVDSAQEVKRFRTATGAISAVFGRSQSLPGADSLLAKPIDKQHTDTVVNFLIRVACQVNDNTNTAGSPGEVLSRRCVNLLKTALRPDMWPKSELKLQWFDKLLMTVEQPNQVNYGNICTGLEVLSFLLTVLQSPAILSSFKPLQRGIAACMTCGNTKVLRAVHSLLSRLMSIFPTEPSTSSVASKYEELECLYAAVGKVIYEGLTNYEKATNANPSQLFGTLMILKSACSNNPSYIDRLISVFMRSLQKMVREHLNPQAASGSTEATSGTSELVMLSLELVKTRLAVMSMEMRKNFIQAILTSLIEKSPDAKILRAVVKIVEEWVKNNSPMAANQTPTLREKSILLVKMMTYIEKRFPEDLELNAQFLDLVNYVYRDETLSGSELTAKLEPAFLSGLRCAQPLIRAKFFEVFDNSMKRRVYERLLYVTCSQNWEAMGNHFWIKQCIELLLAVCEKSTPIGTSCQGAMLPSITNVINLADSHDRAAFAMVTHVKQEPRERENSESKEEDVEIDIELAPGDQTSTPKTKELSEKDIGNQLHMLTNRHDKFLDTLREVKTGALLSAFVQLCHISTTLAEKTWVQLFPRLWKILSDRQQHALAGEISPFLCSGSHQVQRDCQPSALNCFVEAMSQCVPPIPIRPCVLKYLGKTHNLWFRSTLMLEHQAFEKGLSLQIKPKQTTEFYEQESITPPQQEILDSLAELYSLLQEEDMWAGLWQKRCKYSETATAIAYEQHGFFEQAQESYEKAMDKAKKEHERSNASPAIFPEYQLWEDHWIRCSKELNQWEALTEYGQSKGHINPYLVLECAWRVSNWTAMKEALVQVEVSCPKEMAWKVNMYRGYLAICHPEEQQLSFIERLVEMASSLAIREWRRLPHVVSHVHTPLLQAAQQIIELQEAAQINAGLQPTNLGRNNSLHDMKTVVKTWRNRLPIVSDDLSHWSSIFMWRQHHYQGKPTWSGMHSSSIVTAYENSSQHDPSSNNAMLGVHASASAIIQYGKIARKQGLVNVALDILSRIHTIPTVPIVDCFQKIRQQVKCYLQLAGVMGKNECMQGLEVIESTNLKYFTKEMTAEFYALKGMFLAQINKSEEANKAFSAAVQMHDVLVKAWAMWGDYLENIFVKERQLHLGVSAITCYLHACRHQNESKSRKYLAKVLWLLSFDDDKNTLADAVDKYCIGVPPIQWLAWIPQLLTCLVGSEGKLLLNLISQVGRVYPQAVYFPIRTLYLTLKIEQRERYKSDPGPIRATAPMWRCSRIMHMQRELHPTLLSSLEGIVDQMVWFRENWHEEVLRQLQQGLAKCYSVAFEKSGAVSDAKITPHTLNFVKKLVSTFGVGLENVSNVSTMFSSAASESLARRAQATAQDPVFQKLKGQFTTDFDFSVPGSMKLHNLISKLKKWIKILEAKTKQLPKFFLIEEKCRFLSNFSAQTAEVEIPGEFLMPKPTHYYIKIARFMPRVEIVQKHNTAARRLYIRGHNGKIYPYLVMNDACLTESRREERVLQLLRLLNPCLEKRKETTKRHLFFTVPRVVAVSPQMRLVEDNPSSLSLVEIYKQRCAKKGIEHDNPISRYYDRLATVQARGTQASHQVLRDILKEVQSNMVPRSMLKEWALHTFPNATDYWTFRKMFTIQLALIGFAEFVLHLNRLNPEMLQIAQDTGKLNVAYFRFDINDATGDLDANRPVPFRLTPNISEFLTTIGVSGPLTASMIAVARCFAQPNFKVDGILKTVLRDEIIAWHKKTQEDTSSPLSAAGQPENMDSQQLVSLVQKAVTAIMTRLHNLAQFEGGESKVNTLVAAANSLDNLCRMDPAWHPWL
# No constants are given. Whether binding was seen depends on the method and setting. In cells and extracts the contact can be indirect. A yes stands for co-enrichment or nearness to the bait. Other partners may have been found. No binding means not detected with the bait.
# Biological target: TAP-tagged EP400NL (EP400 N-terminal-Like) (human) (UniProt Q6ZTU2)
# Experiment: affinity purification with mass spectrometry
row,binding,Substance
1,binds,"BRG1, core ATPase subunit of the human SWI/SNF chromatin remodelling complexes (from UniProt P51532 1-1647)"
2,binds,DMAP1 (endogenous) (from UniProt Q9NPF5 1-467)
3,binds,BRD8 (Bromodomain-containing protein 8) (from UniProt Q9H0E9 1-1235)
4,no binding,EP400 ATPase (E1A binding protein) (from UniProt Q96L91 1-3159)
5,binds,YEATS4 (from UniProt O95619 1-227)
6,no binding,TRRAP (Transformation/transcription domain-associated protein) (from UniProt Q9Y4A5 1-3859)
7,no binding,TIP60 histone acetyltransferase (endogenous) (from UniProt Q92993 1-513)
